These are yes or no findings as the source states them, for the method shown. Binding seen in cells or lysates may run through a third protein. Some entries that bind do so weakly or less than the wild type. For some of these results: Where a sequence is shown, tags or fusion partners need not be part of it.

Amino acid sequences for entries named in this document (tags omitted). A change or cut given only in a name is not applied to a line headed by its entry.
UniProt Q93009: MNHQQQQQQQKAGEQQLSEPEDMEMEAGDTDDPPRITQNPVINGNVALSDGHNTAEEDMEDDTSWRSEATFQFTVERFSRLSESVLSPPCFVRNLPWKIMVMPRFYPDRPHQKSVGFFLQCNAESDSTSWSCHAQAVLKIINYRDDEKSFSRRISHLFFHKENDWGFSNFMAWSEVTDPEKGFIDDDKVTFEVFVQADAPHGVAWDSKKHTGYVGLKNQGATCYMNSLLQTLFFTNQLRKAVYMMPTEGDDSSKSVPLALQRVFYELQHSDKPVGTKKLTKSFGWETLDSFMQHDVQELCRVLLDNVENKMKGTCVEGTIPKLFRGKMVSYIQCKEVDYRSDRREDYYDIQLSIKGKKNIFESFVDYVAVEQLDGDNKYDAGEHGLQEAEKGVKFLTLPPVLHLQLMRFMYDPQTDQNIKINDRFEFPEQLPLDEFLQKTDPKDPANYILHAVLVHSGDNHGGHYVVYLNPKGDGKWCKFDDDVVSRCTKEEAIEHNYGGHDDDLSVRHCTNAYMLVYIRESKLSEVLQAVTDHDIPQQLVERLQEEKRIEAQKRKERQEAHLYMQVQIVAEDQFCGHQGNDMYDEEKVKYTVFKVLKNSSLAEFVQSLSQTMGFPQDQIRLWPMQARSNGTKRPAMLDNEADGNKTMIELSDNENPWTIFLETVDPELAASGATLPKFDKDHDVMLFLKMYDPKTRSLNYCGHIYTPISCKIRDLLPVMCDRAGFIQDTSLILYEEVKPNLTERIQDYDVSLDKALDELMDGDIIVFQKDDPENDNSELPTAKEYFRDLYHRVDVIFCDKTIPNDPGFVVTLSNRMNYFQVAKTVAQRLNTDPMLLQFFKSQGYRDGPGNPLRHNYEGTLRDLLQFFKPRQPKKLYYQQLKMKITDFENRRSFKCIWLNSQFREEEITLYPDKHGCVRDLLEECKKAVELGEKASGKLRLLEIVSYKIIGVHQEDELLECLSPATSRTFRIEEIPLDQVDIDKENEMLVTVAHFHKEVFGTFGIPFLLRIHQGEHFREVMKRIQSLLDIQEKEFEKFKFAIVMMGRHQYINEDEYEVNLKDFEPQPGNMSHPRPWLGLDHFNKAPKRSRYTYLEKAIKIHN

Assay [1] concerns the target T1, Flag-KDM4A (full-length lysine demethylase 4A) (UniProt O75164).
T1 sequence: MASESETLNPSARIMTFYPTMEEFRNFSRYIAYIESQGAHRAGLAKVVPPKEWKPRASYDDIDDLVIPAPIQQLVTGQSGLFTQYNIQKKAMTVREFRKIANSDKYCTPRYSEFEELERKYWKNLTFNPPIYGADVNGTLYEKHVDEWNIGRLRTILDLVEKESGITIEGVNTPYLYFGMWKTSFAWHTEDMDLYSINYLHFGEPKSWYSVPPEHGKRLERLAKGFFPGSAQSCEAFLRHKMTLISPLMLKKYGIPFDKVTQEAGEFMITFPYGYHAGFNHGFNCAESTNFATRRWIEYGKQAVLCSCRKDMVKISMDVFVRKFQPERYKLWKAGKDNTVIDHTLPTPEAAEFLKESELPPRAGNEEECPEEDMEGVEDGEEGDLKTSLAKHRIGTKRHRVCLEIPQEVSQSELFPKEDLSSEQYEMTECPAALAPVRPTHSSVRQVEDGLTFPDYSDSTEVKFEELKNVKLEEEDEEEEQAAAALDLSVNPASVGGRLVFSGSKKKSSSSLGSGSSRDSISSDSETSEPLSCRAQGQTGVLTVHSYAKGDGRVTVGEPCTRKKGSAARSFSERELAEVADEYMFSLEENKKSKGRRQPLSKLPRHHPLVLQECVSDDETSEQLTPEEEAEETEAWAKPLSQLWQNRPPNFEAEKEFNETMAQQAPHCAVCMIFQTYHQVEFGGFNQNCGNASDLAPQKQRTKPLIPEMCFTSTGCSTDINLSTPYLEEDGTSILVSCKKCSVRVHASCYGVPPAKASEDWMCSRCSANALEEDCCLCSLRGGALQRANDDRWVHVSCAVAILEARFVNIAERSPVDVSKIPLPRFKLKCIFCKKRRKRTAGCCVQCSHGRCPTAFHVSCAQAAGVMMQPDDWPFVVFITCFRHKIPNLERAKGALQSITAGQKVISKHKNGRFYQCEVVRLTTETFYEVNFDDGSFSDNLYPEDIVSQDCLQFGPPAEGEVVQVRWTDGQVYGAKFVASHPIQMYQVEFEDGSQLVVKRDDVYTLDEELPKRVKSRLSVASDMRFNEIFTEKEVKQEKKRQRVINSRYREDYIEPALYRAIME
Briefly: co-IP; HEK293T cells co-transfected with HA-USP7 and Flag-KDM4A constructs (full length and fragments); co-IP and Western blot.

In assay [2] the target is T2, Flag-KDM4A 886-1064aa fragment (UniProt O75164).
T2 sequence: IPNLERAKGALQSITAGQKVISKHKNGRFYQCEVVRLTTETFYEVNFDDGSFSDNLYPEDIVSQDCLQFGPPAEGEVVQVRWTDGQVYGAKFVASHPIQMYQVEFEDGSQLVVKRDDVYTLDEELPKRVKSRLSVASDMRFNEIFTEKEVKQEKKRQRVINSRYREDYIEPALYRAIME
The description is as above.

In a further assay the target is T3, GST-KDM4A, recombinant (UniProt O75164).
T3 sequence: T1 sequence
The assay can be described thus: pull-down; purified recombinant GST-KDM4A with lysates of HEK293T cells transfected with HA-USP7; Western blot with GST-tag and HA-tag antibodies; GST-NC (empty vector) as negative control; only the target purified.

In assay [3] the target is T4, KDM4A (lysine demethylase 4A), endogenous (human (endogenous in T24 and 5637)) (UniProt O75164).
T4 sequence: T1 sequence
Briefly: co-IP; T24 and 5637 cell lysates; IP with IgG (control) versus KDM4A or USP7 antibody; Western blot.

“HA-USP7 561-1102aa fragment (from UniProt Q93009 561-1102) (domain or fragment)”: the binding result in assay [1] is recorded as “binds”.

For “HA-USP7 (full-length) (from UniProt Q93009 1-1102)”, the binding entry in assay [2] is “binds”; in the assay with GST-KDM4A, recombinant it was “binds”.

As to “USP7 (ubiquitin-specific processing protease 7), endogenous (from UniProt Q93009 1-1102)”, the binding result in assay [3] was “binds”.

For the origin of these results see publication PMC12847834.
